Measured values: PMC10891346
Results are given in words; binding and its absence hold for the method and conditions named. In cells and extracts the contact can be indirect. Some binding calls cover weakened binding; strength is not graded here. Where a sequence is shown, tags or fusion partners need not be part of it.

By UniProt entry, the sequences of proteins in these tests, tags left out.
UniProt P01375: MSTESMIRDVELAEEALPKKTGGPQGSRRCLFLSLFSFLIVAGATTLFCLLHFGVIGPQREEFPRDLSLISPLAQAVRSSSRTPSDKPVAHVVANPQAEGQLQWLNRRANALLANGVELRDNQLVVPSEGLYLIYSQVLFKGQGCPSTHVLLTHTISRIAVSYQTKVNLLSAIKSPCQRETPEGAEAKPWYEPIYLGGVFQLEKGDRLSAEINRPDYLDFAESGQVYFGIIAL

Key:
[1] = target: T1, FLAG sequence-tagged Syx6 (FL-Syx6) (human) (UniProt O43752); assay: co-IP
T1 sequence: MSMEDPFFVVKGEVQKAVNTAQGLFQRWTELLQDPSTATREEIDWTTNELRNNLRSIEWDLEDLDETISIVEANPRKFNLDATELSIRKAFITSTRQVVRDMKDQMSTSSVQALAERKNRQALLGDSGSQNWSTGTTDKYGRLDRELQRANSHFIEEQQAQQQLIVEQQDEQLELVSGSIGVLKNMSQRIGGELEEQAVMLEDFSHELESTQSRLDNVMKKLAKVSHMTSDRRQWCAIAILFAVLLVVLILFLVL

[2] = target: T1, FLAG sequence-tagged Syx6 (FL-Syx6) (human); assay: co-IP; immunoisolation of the membrane-bound fraction (no detergent) of cotransfected 293T cells after sonication and equilibrium flotation centrifugation, with anti-FLAG or anti-HA mAb; western blotting
[3] = target: T2, FLAG-tagged R-SNARE (FL-VAMP4) (UniProt O75379); assay: co-IP; FL-VAMP4 coexpressed together with Myc-Syx16, Myc-Vti1a and Myc-Syx6 in 293T cells; anti-FLAG immunoprecipitation; high stringent wash conditions (>1% TritonX-100)
T2 sequence: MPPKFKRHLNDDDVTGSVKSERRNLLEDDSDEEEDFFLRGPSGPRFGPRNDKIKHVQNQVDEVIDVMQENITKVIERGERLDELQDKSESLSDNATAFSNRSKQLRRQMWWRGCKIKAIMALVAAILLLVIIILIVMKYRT

[4] = target: HA sequence-tagged TNFα (HA-TNFα) (UniProt P01375); assay: co-IP
[5] = target: HA sequence-tagged TNFα (HA-TNFα) (UniProt P01375); assay: co-IP; immunoisolation of the membrane-bound fraction (no detergent) of cotransfected 293T cells after sonication and equilibrium flotation centrifugation, with anti-FLAG or anti-HA mAb; western blotting
[6] = target: HA sequence-tagged TNFα (HA-TNFα) (UniProt P01375); assay: pull-down; FLAG and HA tag pulldown: HA-TNFα immunoprecipitated on anti-HA mAb/protein G-sepharose beads and incubated with 293T lysates expressing FLAG-tagged Syx6 fragments; reversely FLAG-tagged Syx6 fragments on anti-FLAG mAb-immobilized beads incubated with lysate expressing HA-TNFα; only the target purified
[7] = target: HA sequence-tagged TNFα (HA-TNFα) (UniProt P01375); assay: co-IP; 293T cells cotransfected with the two tagged constructs; lysis buffer 50 mM HEPES pH 7.4, 150 mM NaCl, 1.5 mM MgCl2, 1 mM EGTA, 1% Triton X-100, 10% glycerol, 1 mM DTT; immunoprecipitation with anti-FLAG or anti-HA mAb and protein G-sepharose; western blotting

HA sequence-tagged TNFα (HA-TNFα) (from UniProt P01375 1-233)
binding [1]: binds
binding [2]: binds

B1: Syntaxin6 tagged with the Myc sequence at the N-terminus (Myc-Syx6) (protein, UniProt O43752 1-255)
chain: MSMEDPFFVVKGEVQKAVNTAQGLFQRWTELLQDPSTATREEIDWTTNELRNNLRSIEWDLEDLDETISIVEANPRKFNLDATELSIRKAFITSTRQVVRDMKDQMSTSSVQALAERKNRQALLGDSGSQNWSTGTTDKYGRLDRELQRANSHFIEEQQAQQQLIVEQQDEQLELVSGSIGVLKNMSQRIGGELEEQAVMLEDFSHELESTQSRLDNVMKKLAKVSHMTSDRRQWCAIAILFAVLLVVLILFLVL
binding [3]: binds

B2: FLAG sequence-tagged Syx6 (FL-Syx6) (protein, UniProt O43752 1-255)
chain: MSMEDPFFVVKGEVQKAVNTAQGLFQRWTELLQDPSTATREEIDWTTNELRNNLRSIEWDLEDLDETISIVEANPRKFNLDATELSIRKAFITSTRQVVRDMKDQMSTSSVQALAERKNRQALLGDSGSQNWSTGTTDKYGRLDRELQRANSHFIEEQQAQQQLIVEQQDEQLELVSGSIGVLKNMSQRIGGELEEQAVMLEDFSHELESTQSRLDNVMKKLAKVSHMTSDRRQWCAIAILFAVLLVVLILFLVL
binding [4]: binds
binding [5]: binds
binding [6]: binds

B3: FLAG-tagged C-terminal domain of Syx6 (FL-Syx6C) (domain or fragment, UniProt O43752 117-255)
chain: RKNRQALLGDSGSQNWSTGTTDKYGRLDRELQRANSHFIEEQQAQQQLIVEQQDEQLELVSGSIGVLKNMSQRIGGELEEQAVMLEDFSHELESTQSRLDNVMKKLAKVSHMTSDRRQWCAIAILFAVLLVVLILFLVL
binding [7]: binds
binding [6]: binds

B4: Myc-tagged Vti1a (Qb-SNARE) (protein, UniProt Q96AJ9 1-217)
chain: MSSDFEGYEQDFAVLTAEITSKIARVPRLPPDEKKQMVANVEKQLEEAKELLEQMDLEVREIPPQSRGMYSNRMRSYKQEMGKLETDFKRSRIAYSDEVRNELLGDDGNSSENQRAHLLDNTERLERSSRRLEAGYQIAVETEQIGQEMLENLSHDREKIQRARERLRETDANLGKSSRILTGMLRRIIQNRILLVILGIIVVITILMAITFSVRRH
binding [3]: binds
